From PubChem BioAssay AID1347076 (National Center for Advancing Translational Sciences (NCATS), 2019)
Out of some 400,000 compounds screened, about 13,000 (3.2%) were called active. Inconclusive results, whose numbers are uncertain, are shown with a selection of clear calls. Calls follow the shape of the dose curve; as a rule, active = well fitted cell-killing curve with a large enough effect; inconclusive = small, poorly fitted or top-dose-only effect, or effect the other way; inactive = flat fitted curve, though single readings scatter. A potency beside an inconclusive call is a rough fit, not a confirmed value.

assay: qHTS assay for MDR1-selective chemotherapeutics: Primary screen using the drug-selected MDR subline cells KB-V1; settings: KB-V1 MDR cells viability, CellTiter-Glo, 72 h; activity change, negative = cytotoxicity: at 46.1 µM (top of the series); also: nearly all actives have a fitted effect of over 60% in size
In short: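 In this primary screen, KB-V1 cells overexpressing P-gp are incubated with library compounds (lowest to highest concentration) for 72 h at 37 degrees C before a luminescent ATP viability read.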
% is scaled to controls: 0 for no effect and ±100 for the full control effect; potency is read from the fitted curve at half-maximal effect.

| Compound | activity change, negative = cytotoxicity | Potency |
| --- | --- | --- |
| COC(=O)c1cnc(Nc2nc(C(N)Cc3ccc(Cl)cc3)cs2)nc1C(F)(F)F (configuration not stated) | inactive: -16.5% | – |
| C=CCn1c(NCc2ccccc2O)nc2ccccc21 | – | inconclusive: 11.6 µM [cytotoxic, partial curve] |
| CCCc1cc(=O)oc2cc(OC(C)C(=O)NCC3CCC(C(=O)O)CC3)ccc12 (configuration not stated) | – | inconclusive: 0.184 µM [cytotoxic, full curve, poor fit] |
| O=C(/C=C/c1ccc2c(c1)OCO2)Nc1nc(-c2ccccc2)cs1 | – | inconclusive: 18.4 µM [cytotoxic, single point] |
| CS(=O)(=O)Nc1nnc(SCC(=O)Nc2cccc([N+](=O)[O-])c2)s1 | – | inconclusive: 5.17 µM [rising, full curve] |
| COCCCn1c(=N)c(S(=O)(=O)c2ccccc2)cc2c(=O)n3cc(C)ccc3nc21 | – | inconclusive: 4.61 µM [cytotoxic, partial curve] |
| COc1ccc2nc(NC(=O)Nc3ccccc3OC)sc2c1 | – | active: 4.61 µM |
| CC(C)C[C@H]1CN=C(Nc2ccccc2)N1CCc1ccc(F)cc1 | – | inconclusive: 3.26 µM [cytotoxic, partial curve, poor fit] |
| COCc1nnc(NC(=O)c2ccc(S(=O)(=O)N3CCCc4ccccc43)cc2)o1 | – | inconclusive: 8.2 µM [cytotoxic, partial curve] |
| CCC(C)OC(=O)c1[nH]c2c(c1C)C(=O)CC(c1ccc(N(C)C)cc1)C2 (configuration not stated) | – | inconclusive: 29.1 µM [cytotoxic, single point] |
| Cc1ccc(N2C(=O)C3C(c4ccccc4)(C2=O)C3(c2ccccc2)c2ccccc2)cc1 (configuration not stated) | – | inconclusive: 8.2 µM [cytotoxic, partial curve, poor fit] |
| CC(C)(C)OC(=O)N1CCC(c2c(C(=O)N3CCN(c4ccc(Cl)cc4)CC3)cnn2-c2ccc(F)cc2F)CC1 | – | inconclusive: 23.1 µM [cytotoxic, single point] |
| COc1ccc(C(=O)NCCSc2ccccc2)cc1OC | – | inconclusive: 20.6 µM [cytotoxic, single point] |
| CCOc1cc(NC(=O)CC(C)C)c(OCC)cc1NC(=O)CCn1nnc2ccccc21 | – | active: 4.11 µM |
| COC(=O)[C@@]1(Sc2ccc(C)cc2)CC(=O)N(c2cccc(SC)c2)[C@@H]1c1ccccc1 | – | active: 20.6 µM |
| Cc1ccccc1OCC(=O)Nc1ccc2nc(SCC(=O)N(C)c3ccccc3)sc2c1 | – | inconclusive: 16.4 µM [cytotoxic, partial curve] |
| Cc1cnn(-c2cc(N/N=C/c3ccc(F)cc3)ncn2)c1 | – | inconclusive: 29.1 µM [cytotoxic, single point] |

By substructure, the compounds so far containing fluorine

| Compound | activity change, negative = cytotoxicity | Potency |
| --- | --- | --- |
| COC(=O)c1cnc(Nc2nc(C(N)Cc3ccc(Cl)cc3)cs2)nc1C(F)(F)F (configuration not stated) | inactive: -16.5% | – |
| CC(C)C[C@H]1CN=C(Nc2ccccc2)N1CCc1ccc(F)cc1 | – | inconclusive: 3.26 µM [cytotoxic, partial curve, poor fit] |
| CC(C)(C)OC(=O)N1CCC(c2c(C(=O)N3CCN(c4ccc(Cl)cc4)CC3)cnn2-c2ccc(F)cc2F)CC1 | – | inconclusive: 23.1 µM [cytotoxic, single point] |
| Cc1cnn(-c2cc(N/N=C/c3ccc(F)cc3)ncn2)c1 | – | inconclusive: 29.1 µM [cytotoxic, single point] |
